Data reported in PubChem BioAssay AID1347423 (Functional Genomics Laboratory (NCATS/FGL), 2020).
The campaign covered roughly 52,000 sequences. About 210 (0.4%) were called active.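 Rule for the calls: active = gene whose silencing raises cell survival under the drug, median off-target-corrected z-score across its silencing RNAs 2 or more; inactive = the rest.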 The list shows a part of the results.

Assay: Resistance to Poly (ADP-Ribose) Polymerase inhibitor: Gene Identification via Genome-wide siRNA Screen
Conditions: mouse BRCA2 R2336H ES cells, olaparib, CellTiter-Glo viability; active compounds read high
Method in brief: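 Mouse BRCA2 R2336H ES cells were reverse-transfected with siRNA (20 nM final), treated at 48 h with 500 nM olaparib, and read by CellTiter-Glo after 72 h. Scores: MAD-based z per siRNA, median per gene, seed off-target correction.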

| Sequence | z-score |
| --- | --- |
| GGCUGUGUAUGCUUUACCATT against Dnajc11 | inactive: -0.103 |
| GGGACUCUAAAAUCUCAGGTT against Samd10 | inactive: 0.36 |
| GGGACUUGUCCAUCCUUUUTT against C130060K24Rik | inactive: 2.31 |
| CCCGGGUCUUUGAUAUCUUTT against B130050I23Rik | inactive: 0.0321 |
| GCAGUCCAAAAAAUUCGGUTT against 4933409N07Rik | inactive: 0.183 |
| GGUGGUGUCAACCUUAAAATT against Vmp | inactive: -0.208 |
| GGUGCCAACCUCAAUUCAUTT against Hnf4a | inactive: -0.607 |
| GGCCAAAUACCUUACCAAGTT against Pold2 | inactive: -0.732 |
| GGCAUUUUAUCUGUUAGACTT against Serpinh1 | inactive: -0.509 |
| GGAGGAAACACAUCAUUUGTT against D1Bwg0491e | inactive: 0.384 |
| GCAAAGACGAAAUGCCGAGTT against 1700013G20Rik | inactive: 0.448 |
| GGAGACUUUCAGGAGAUUUTT against 2410127L17Rik | inactive: -0.986 |
| GGAAAUCUGUGUGAUUGAATT against Pcca | inactive: 1.63 |
| GCAUGUGGAGAAGAUGAGGTT against Tas2r143 | inactive: 0.405 |
| CGAAGUGCUUCAAUAGUAATT against Rnf14 | inactive: 0.678 |
| GGGCUUUUGGCUUCAUGACTT against Pcbd | inactive: 0.397 |
| CCAGCUCAGUUCCAAACAATT against Dnajc12 | inactive: 1.73 |
| GGUGUGACCUCAUCUUUUUTT against Suv420h2 | inactive: 0.929 |
| GGGAAGGAGAGUAUUCCAATT against Mrpl14 | inactive: 0.193 |
| GCAUCUUAUCAAAUAUCCATT against Abca1 | inactive: 0.689 |
| GGUCUCUGGUACACUUCAUTT against Ramp1 | inactive: -0.747 |
| GGGCUUGAAAGCAUACAAATT against Bcat2 | inactive: 0.0561 |
| CGGUGAAAGACUUCAGUAUTT against Ppfibp1 | inactive: -0.621 |
| GCUCAGGAACAUUUGGACATT against Cyp2a5 | inactive: 0.218 |
| GGUUUGGACACCUCUGUCATT against Adcy9 | inactive: -2.7 |
| CGUGGAACAUAAGAAUGGATT against Gapds | inactive: 0.998 |

A second format for some results above:
Sequence	z-score
GGAGGAAACACAUCAUUUGTT against D1Bwg0491e	inactive: 0.384
GGAGACUUUCAGGAGAUUUTT against 2410127L17Rik	inactive: -0.986
GGGCUUGAAAGCAUACAAATT against Bcat2	inactive: 0.0561

Carrying on.

| Sequence | z-score |
| --- | --- |
| GGGACACGUUUUCUGUGCATT against Lrrk1 | inactive: -1.06 |
| GGAUGAGGAAAACUUCCAGTT against Mup5 | inactive: -1.47 |
| GGCGGAGAACCAUUGAGGATT against 2410141M05Rik | inactive: 0.344 |
| CGGCAUGUCCUUCAUCGCUTT against 5430407P10Rik | inactive: -0.0323 |
| GGGAAAAUCAAGACCAAUUTT against Rpp30 | inactive: -1.08 |
| CCAAAUGUGCAGGUUGGAGTT against Exosc3 | inactive: -0.481 |
| GGCUACGAUCCUACAGUGGTT against Rhebl1 | inactive: -0.634 |
| CCCAAGAAGUUUUAUUCUGTT against BC050789 | inactive: 0.751 |
| GGGUGGAAAAUUUCAGUUUTT against 2510010F15Rik | inactive: 0.18 |
| GGUUACAGGAUGUUCUUAUTT against Fmo2 | inactive: -1.1 |
| GGAGGUACAUCAAAUGGUGTT against 9930020N01Rik | inactive: 0.436 |
| CCAACAAUGCCGCCAUCAUTT against Gmfg | inactive: 1.5 |
| UGAAGCUGUCCCGGACUAATT against LOC435684 | inactive: -1.38 |
| GGGUUAUACCCAGAAUUUCTT against BB219290 | inactive: 1.17 |
| GGACUGGAUUUCAUUUAGATT against Fgf9 | inactive: 0.325 |
| AACUAGCAAUAUGAUGGAGTT against Chic1 | inactive: 0.205 |
| CCGGGAAACCAACAAAUCATT against Rbmxrt | inactive: -0.911 |
| GGACAGAGACAAGAAAAUATT against Ptpn11 | inactive: 0.741 |
| CCUUAAAUGGAGCUUCAGATT against Insrr | inactive: 1.35 |
| GGCCUUCUCCAAGGAGAAGTT against Ptrf | inactive: 0.452 |
| GGCCCUGGAAACUAAGCUUTT against Aldob | inactive: -0.807 |
| GCGGAGGAUAGAGCAAAUUTT against Upf3b | inactive: 0.302 |
| CCUUUGGUAAUCUCCAAAATT against Amph | inactive: 0.404 |
| GGACAAGGAAACAAAUUCATT against F8 | inactive: 0.77 |
| CGGACUAUCUCUAUGAAGATT against Tas2r108 | inactive: -0.69 |
| GGCUGAACAAGAGAAACCATT against 2700038C09Rik | inactive: -0.606 |

A run of entries of the results above:

| Sequence | z-score |
| --- | --- |
| GGCCAAAUACCUUACCAAGTT against Pold2 | inactive: -0.732 |
| GGCAUUUUAUCUGUUAGACTT against Serpinh1 | inactive: -0.509 |
| GGAGGAAACACAUCAUUUGTT against D1Bwg0491e | inactive: 0.384 |
| GCAAAGACGAAAUGCCGAGTT against 1700013G20Rik | inactive: 0.448 |
| GGAGACUUUCAGGAGAUUUTT against 2410127L17Rik | inactive: -0.986 |

(list continues)

| Sequence | z-score |
| --- | --- |
| CCUUAACUCACUUCAUAAUTT against Vps35 | inactive: 0.212 |
| GGAAAAGAAGAUGAACAAGTT against Slc24a1 | inactive: -0.842 |
| GCUUCUGCUUGUUCGCUAGTT against Dub2a | inactive: 0.379 |
| CCCAUUAUUAACGCGAAGGTT against Pfn4 | inactive: 0.618 |
| GGAAGUACCAGGAAGCUGATT against Stmn4 | inactive: -0.247 |
| GCUCUUGGUCCGUCUUCAGTT against 6030452D12Rik | inactive: -1.22 |
| GGAUGACAACAACACUCUGTT against Cacna1s | inactive: -0.229 |
| GGACACAAUGACAAAGUCCTT against Wdfy2 | inactive: -0.456 |
| GGGAAUCAGAUUUGACCUUTT against Mrpl19 | inactive: 0.189 |
| GGAAAAUAAGGACACUAGUTT against Zfx | inactive: -0.142 |
| GGUUCUCAUGAACAGUGAGTT against Tm9sf4 | inactive: -1.16 |
| GUAAAUCCAAUUCCUCAGCTT against Vax1 | inactive: -0.205 |
| GGAUAUGGAUCUUAUGAAGTT against 4930558O21Rik | inactive: 1.13 |
| CGGACUCAGUCAUCAUUGCTT against Atf7 | inactive: 0.755 |
| CGCGGAAACUCUCCACUUATT against Psme4 | inactive: -0.44 |
| GGAGUCAUGUCUGUUGGCATT against 1300019C06Rik | inactive: -0.415 |
| CCAUACCUAAAUCUGCAUUTT against 4930565A21Rik | inactive: -0.355 |
| GUGGAUUGAGGAUGGAAUCTT against Gng13 | inactive: -0.253 |
| GCGAUCAGUACUGAAGGAATT against Siglec5 | inactive: -1.44 |
| CCCAAUGGUUGUACCAAUATT against Zp3r | inactive: 0.759 |
| GCUAGUCCGGUACUUCUUGTT against Bckdk | inactive: 1.65 |
| GGGAGAAACUAUUUAGUCUTT against Inhbe | inactive: -0.402 |
| GCUUAGAAAUCUUAUCCCATT against Hnrpc | inactive: 0.412 |
| GGCGAGGAGAAAAGAGUUUTT against Wfdc12 | inactive: 0.591 |
| GCAUCAAGAUUAAGGUUGUTT against 8030451F13Rik | inactive: 0.548 |
| GGCAUUGUCACUGUGUCUGTT against Sphk2 | inactive: -1.01 |

| Sequence | z-score |
| --- | --- |
| GGUCAUCGACUUCUCCAAGTT against Grik5 | inactive: -0.418 |
| GGGUACGUUCAAGUGCUUCTT against Agtpbp1 | inactive: -0.398 |
| GGACAUUAUUCCAUCUAAGTT against C030036P15Rik | inactive: 0.628 |
| GGUACUUUGGAAAGAAGAGTT against Gas41 | inactive: -2.13 |
| GGGAAUGACGCAUCUUGAATT against 1110001A05Rik | inactive: 0.85 |
| GCAGUUAUCGUGAAGUCUGTT against Tcfap4 | inactive: 0.82 |
| GGUUGUGGACACAUCCAAATT against Aacs | inactive: -0.153 |
| GCCUGGCAGAUAUCGCUCUTT against Homez | inactive: 1.61 |
| GGAAUCAUGCUGAAAGAGATT against Apom | inactive: 0.74 |
| GGAACCUGGUAGGUCAGAATT against Olfr156 | inactive: -0.295 |
| GCAGAGAGUUUUUAUCUGCTT against 4930579A11Rik | inactive: 0.248 |
| GGUGGUUAAACCCAGACUGTT against 2310067E19Rik | inactive: -2.8 |
| GGCUGAAGAGCCUAGAGAATT against 1700120K04Rik | inactive: -0.648 |
| GCCAUUCUAGAACCUGUAGTT against Zwint | inactive: -0.937 |
| GGAAGAGGAGACCACUGAUTT against 2410005H09Rik | inactive: 0.454 |
| GGAGGUCCACCUCAUUCUGTT against Gdap1 | inactive: 0.0281 |
| GGGCUUCAUGGUUCAAACATT against Ppil3 | inactive: -0.0468 |
| CGUGGUGACUAAGGAUUAUTT against Slc6a20 | inactive: 0.216 |
| CCAACGCGCACGGCCGCGCTT against 2310037P21Rik | inactive: -0.000569 |
| GCCAGUUUGUUACACGCAATT against 4921533L14Rik | inactive: -0.0971 |
| GGUUUCUCUCUACGCUAUGTT against Nrp2 | inactive: 1.81 |
| CCUCGUGUAAGUAUUUAGATT against Mrpl51 | inactive: -0.205 |
| GCUGGCUGCAUAAACUUGUTT against Lipg | inactive: 1.56 |
| GCGUGAAUACCUAAAUGUGTT against Rec8L1 | inactive: 0.42 |
| CGAUCAUCACCAGAACACCTT against C030030G16Rik | inactive: -0.846 |
